Values from PubChem BioAssay AID1259424 (University of Nebraska Medical Center, 2018)
Screen: 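Find knockdowns that reproduce the expression shifts seen after KSR1 loss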 (primary screen). Cells: human HCT116 colon cancer cells. Reagents: siRNA pool against human genes, 50 nM. Measurement: 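Log2 levels of six mRNAs (branched-DNA multiplex), adjusted by two reference genes and the non-targeting median, then scored against the average KSR1 knockdown pattern as Pearson r and euclidean distance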. Scale: mean correlation with KSR1 profile: higher = expression change more like KSR1 knockdown; mean distance from KSR1 profile: higher = expression change less like KSR1 knockdown.
In all, the deposit lists about 14,000 reagents; shown is a random part of them. 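Higher correlation or smaller distance means closer resemblance to KSR1 loss; control wells, including KSR1 knockdowns, recur on many plates.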 Not all columns of the deposit are shown. Not stated in the record: the time to read-out.

MKNK2 showed mean correlation with KSR1 profile 0.346; mean distance from KSR1 profile 1.28.
With knock-down of CNIH1, the screen gave mean correlation with KSR1 profile -0.448; mean distance from KSR1 profile 4.15.
Depletion of PTK6 resulted in: mean correlation with KSR1 profile 0.409; mean distance from KSR1 profile 1.55.
DBR1 gave mean correlation with KSR1 profile 0.28; mean distance from KSR1 profile 5.36.
Depletion of HAPLN1 came out at: mean correlation with KSR1 profile 0.131; mean distance from KSR1 profile 2.6.
After knock-down of DMAC2L, the screen gave mean correlation with KSR1 profile -0.208; mean distance from KSR1 profile 1.46.
NUBP1 showed mean correlation with KSR1 profile 0.421; mean distance from KSR1 profile 1.43.
Depletion of HTR1E came out at: mean correlation with KSR1 profile 0.305; mean distance from KSR1 profile 1.7.
NIPSNAP2 scored mean correlation with KSR1 profile -0.24; mean distance from KSR1 profile 2.43.
Silencing of CTDSP1 came out at: mean correlation with KSR1 profile -0.239; mean distance from KSR1 profile 1.23.
ITPK1 showed mean correlation with KSR1 profile 0.0696; mean distance from KSR1 profile 2.74.
ALDH1A1 showed mean correlation with KSR1 profile -0.0644; mean distance from KSR1 profile 1.52.
With knock-down of BCORL1, the record shows mean correlation with KSR1 profile 0.383; mean distance from KSR1 profile 5.68.
Against CCM2, the values are mean correlation with KSR1 profile -0.0101; mean distance from KSR1 profile 2.25.
Against RBM34, the values are mean correlation with KSR1 profile -0.155; mean distance from KSR1 profile 2.6.
With knock-down of TIMM17A, the record shows mean correlation with KSR1 profile 0.0984; mean distance from KSR1 profile 2.43.
Against TNP2 the deposit lists mean correlation with KSR1 profile -0.503; mean distance from KSR1 profile 1.99.
Against SLC35D4, the entry reads mean correlation with KSR1 profile -0.0763; mean distance from KSR1 profile 2.77.
Silencing of ATP5PO came out at: mean correlation with KSR1 profile 0.219; mean distance from KSR1 profile 1.85.
Against ZNF221, the entry reads mean correlation with KSR1 profile -0.242; mean distance from KSR1 profile 3.74.
After knock-down of PHF10, the screen gave mean correlation with KSR1 profile -0.123; mean distance from KSR1 profile 2.94.
With knock-down of IRF1, the screen gave mean correlation with KSR1 profile 0.25; mean distance from KSR1 profile 2.56.
Knock-down of MUC13 resulted in: mean correlation with KSR1 profile -0.517; mean distance from KSR1 profile 1.86.
ADORA2A scored mean correlation with KSR1 profile 0.404; mean distance from KSR1 profile 2.03.
SRRM4 gave mean correlation with KSR1 profile 0.41; mean distance from KSR1 profile 6.13.
With knock-down of COL19A1, the screen gave mean correlation with KSR1 profile -0.524; mean distance from KSR1 profile 2.17.
Against MAGEA10, the entry reads mean correlation with KSR1 profile -0.23; mean distance from KSR1 profile 2.76.
RMI1 showed mean correlation with KSR1 profile 0.59; mean distance from KSR1 profile 1.58.

Not a retest: entries from further up.
ADORA2A | mean correlation with KSR1 profile: 0.404; mean distance from KSR1 profile: 2.03
SRRM4 | mean correlation with KSR1 profile: 0.41; mean distance from KSR1 profile: 6.13
COL19A1 | mean correlation with KSR1 profile: -0.524; mean distance from KSR1 profile: 2.17
MAGEA10 | mean correlation with KSR1 profile: -0.23; mean distance from KSR1 profile: 2.76
